Experimental data: article PMC6959991
Results are given in words; binding and its absence hold for the method and conditions named. In cells and extracts the contact can be indirect. A result given as binding can be weak or reduced; the word gives no strength. Tags and fused reporters may be left off the sequences shown.

Molecular target: C-terminally V5-tagged US10 (HEK293T) (human cytomegalovirus, strain Merlin)
Assay: co-IP

B1: C-terminally HA-tagged LRFN3 (protein, UniProt Q9BTN0 17-628)
chain: SSPPQSATPSPCPRRCRCQTQSLPLSVLCPGAGLLFVPPSLDRRAAELRLADNFIASVRRRDLANMTGLLHLSLSRNTIRHVAAGAFADLRALRALHLDGNRLTSLGEGQLRGLVNLRHLILSNNQLAALAAGALDDCAETLEDLDLSYNNLEQLPWEALGRLGNVNTLGLDHNLLASVPAGAFSRLHKLARLDMTSNRLTTIPPDPLFSRLPLLARPRGSPASALVLAFGGNPLHCNCELVWLRRLAREDDLEACASPPALGGRYFWAVGEEEFVCEPPVVTHRSPPLAVPAGRPAALRCRAVGDPEPRVRWVSPQGRLLGNSSRARAFPNGTLELLVTEPGDGGIFTCIAANAAGEATAAVELTVGPPPPPQLANSTSCDPPRDGDPDALTPPSAASASAKVADTGPPTDRGVQVTEHGATAALVQWPDQRPIPGIRMYQIQYNSSADDILVYRMIPAESRSFLLTDLASGRTYDLCVLAVYEDSATGLTATRPVGCARFSTEPALRPCGAPHAPFLGGTMIIALGGVIVASVLVFIFVLLMRYKVHGGQPPGKAKIPAPVSSVCSQTNGALGPTPTPAPPAPEPAALRAHTVVQLDCEPWGPGHEPVGP
Q: With B1 as the binder, how does the binding read?
A: binds
